Assay results as given in PMC13545989.

Assays:
Assay in all cases: co-IP; FLAG purification of Miro1/FP/FLAG/I3-01 synthetic cargo from hTERT RPE-1 cell lines co-expressing TRAK/mScarlet variants; immunoblot of the associated motor-adaptor components (kinesin, dynein, dynactin); also done after kinesin RNAi (fig. S4E)
[1] = molecular target: T1, TRAK2/mScarlet fusion protein (wild type) (UniProt O60296)
T1 sequence: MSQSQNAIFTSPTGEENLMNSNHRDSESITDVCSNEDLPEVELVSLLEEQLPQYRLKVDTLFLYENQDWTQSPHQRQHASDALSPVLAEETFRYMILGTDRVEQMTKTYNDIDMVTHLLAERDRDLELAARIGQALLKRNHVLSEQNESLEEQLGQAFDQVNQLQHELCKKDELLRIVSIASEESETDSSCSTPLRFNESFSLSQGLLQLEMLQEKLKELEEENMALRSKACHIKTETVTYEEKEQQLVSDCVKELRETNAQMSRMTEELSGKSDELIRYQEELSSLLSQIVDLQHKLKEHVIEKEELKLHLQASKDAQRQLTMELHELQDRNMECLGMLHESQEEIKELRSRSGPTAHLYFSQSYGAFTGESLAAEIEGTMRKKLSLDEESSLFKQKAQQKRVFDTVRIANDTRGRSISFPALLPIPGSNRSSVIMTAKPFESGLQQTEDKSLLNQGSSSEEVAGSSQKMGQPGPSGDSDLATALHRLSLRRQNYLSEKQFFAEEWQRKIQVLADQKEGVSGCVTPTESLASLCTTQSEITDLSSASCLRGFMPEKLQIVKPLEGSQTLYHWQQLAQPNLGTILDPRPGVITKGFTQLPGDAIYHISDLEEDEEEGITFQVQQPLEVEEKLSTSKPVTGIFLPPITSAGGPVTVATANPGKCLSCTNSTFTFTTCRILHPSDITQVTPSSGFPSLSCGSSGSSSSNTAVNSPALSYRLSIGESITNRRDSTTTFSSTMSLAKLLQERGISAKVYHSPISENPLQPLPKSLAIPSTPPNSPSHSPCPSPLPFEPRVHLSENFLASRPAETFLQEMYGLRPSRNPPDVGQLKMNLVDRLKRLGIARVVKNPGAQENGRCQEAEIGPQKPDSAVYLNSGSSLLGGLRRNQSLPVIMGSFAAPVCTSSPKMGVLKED

[2] = molecular target: T2, TRAK1 DRH mutant (L92A, F95A; mScarlet fusion) (UniProt Q9UPV9)
T2 sequence: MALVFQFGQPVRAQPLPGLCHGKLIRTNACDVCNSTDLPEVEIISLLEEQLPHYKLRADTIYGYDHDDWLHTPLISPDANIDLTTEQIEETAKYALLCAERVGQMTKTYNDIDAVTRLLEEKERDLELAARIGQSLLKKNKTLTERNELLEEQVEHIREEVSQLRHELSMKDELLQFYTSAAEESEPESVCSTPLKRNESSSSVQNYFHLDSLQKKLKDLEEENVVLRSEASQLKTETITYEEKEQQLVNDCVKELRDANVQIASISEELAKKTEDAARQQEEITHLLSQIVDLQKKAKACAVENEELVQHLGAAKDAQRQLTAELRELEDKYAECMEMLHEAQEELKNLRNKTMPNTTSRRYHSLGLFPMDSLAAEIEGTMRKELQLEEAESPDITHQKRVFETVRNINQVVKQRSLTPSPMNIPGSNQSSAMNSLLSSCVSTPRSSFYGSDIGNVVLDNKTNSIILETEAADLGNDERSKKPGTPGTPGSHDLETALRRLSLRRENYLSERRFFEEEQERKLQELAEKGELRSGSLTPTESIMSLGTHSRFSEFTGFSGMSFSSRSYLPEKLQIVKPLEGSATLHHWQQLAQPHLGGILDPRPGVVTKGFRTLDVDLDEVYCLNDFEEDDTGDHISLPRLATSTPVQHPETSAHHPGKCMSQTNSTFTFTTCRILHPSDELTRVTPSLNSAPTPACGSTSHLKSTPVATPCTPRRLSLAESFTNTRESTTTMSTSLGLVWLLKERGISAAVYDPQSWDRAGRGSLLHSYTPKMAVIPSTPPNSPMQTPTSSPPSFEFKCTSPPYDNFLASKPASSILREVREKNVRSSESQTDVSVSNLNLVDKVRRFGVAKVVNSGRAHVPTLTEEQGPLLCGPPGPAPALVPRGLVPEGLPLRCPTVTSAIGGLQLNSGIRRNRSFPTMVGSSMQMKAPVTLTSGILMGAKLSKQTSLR

[3] = molecular target: T3, TRAK1 E242R (mScarlet fusion) (UniProt Q9UPV9)
T3 sequence: T2 sequence with A92L, A95F, E242R

Measured: binding

kinesin-1 (human (endogenous in hTERT RPE-1))
binds: all assays above

Residue numbers refer to the chain shown, from its start. No constants are given. Whether binding was seen depends on the method and setting. In cells and extracts the contact can be indirect. Binding calls can cover weak binding; strength is not graded here. Tags and fused reporters may be left off the sequences shown.
